The text below walks through data of patent EP1029544A1, “INTRA-CANCER-CELL NUCLEASE ACTIVATOR” (Nippon Shinyaku Co., Ltd., priority 1997, dated 1999).

Values after ≈ are worked out from the molar mass of the structure shown.

For the assay, the system named is MCF7. The experiment in a line: Growth inhibitory effect (in vitro), MTT method. The format is cell-based. The conditions noted are these: Homo sapiens, 72 h; MCF7, Breast adenocarcinoma; 3 days. The method, then:
A 96-well plate was seeded with cells at a density of 10^4 cells/well. On the following day, the activator of Example 4 or adriamycin was added and the cultivation was continued. After 3 days the viable cell count was determined by the MTT method.

One may read the IC50 as the concentration that inhibits the measured activity by half. A lower IC50 goes with greater potency. Take `COc1cccc2c1C(=O)c1c(O)c3c(c(O)c1C2=O)C[C@@](O)(C(=O)CO)C[C@@H]3O[C@H]1C[C@H](N)[C@H](O)[C@H](C)O1` [Adriamycin]: the IC50 is 0.073 µg/mL (≈ 0.134 µM).
